Measurements: patent US20160355503A1, “NITROGEN HEXACYCLE COMPOUNDS AS INHIBITORS OF p97 COMPLEX” (Cleave Biosciences, Inc., priority 2015, published 2016)

Test system: Caco-2 cells

Peff A B, Range (pH 7.4 Caco-2, A to B): 0.69-1.80 ×E−6 cm/sec | Peff B A, Range (pH 7.4 Caco-2, B to A): 1.69-2.68 ×E−6 cm/sec
SMILES: CC(C)NCC(O)COc1ccc(CC(N)=O)cc1 (centres unmarked) [Atenolol]
